{"sequences": {"note": "Sequences of proteins named here, by UniProt entry; tags and fusion partners are left off.", "UniProt O14746, whole entry": "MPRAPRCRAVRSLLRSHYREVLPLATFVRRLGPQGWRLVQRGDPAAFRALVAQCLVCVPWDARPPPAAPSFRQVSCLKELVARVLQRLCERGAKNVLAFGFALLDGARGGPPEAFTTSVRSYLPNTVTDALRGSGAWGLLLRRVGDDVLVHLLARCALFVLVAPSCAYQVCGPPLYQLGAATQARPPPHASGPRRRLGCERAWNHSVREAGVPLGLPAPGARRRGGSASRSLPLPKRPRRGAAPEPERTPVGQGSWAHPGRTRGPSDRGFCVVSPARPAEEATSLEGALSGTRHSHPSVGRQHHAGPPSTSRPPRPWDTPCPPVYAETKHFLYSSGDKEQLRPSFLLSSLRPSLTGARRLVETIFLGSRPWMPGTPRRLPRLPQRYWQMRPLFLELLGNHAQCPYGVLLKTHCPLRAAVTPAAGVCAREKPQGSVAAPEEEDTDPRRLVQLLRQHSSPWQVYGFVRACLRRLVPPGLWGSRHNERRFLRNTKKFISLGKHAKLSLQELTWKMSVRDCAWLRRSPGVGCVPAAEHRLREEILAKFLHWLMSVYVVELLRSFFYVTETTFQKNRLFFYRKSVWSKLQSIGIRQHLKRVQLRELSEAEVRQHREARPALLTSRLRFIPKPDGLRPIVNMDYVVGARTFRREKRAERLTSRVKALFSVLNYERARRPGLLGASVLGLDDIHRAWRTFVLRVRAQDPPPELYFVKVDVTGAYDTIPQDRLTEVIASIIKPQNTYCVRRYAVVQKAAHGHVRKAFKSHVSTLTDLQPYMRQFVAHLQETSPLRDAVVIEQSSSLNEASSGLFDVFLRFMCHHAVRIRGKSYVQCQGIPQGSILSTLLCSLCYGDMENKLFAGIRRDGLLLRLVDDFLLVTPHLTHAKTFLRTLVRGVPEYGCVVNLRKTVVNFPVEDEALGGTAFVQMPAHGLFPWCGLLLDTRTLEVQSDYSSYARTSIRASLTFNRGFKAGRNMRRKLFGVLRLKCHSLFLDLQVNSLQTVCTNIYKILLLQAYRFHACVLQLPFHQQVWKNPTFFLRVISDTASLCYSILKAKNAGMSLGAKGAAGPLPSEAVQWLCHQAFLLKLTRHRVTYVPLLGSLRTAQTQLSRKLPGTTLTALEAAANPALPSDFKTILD", "UniProt Q9NY12, whole entry partner": "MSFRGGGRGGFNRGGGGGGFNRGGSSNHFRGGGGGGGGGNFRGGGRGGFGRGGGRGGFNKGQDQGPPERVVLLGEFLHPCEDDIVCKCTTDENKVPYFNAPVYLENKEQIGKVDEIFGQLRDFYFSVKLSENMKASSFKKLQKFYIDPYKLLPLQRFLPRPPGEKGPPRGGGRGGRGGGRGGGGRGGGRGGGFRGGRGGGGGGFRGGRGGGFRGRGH", "UniProt O60832, whole entry partner": "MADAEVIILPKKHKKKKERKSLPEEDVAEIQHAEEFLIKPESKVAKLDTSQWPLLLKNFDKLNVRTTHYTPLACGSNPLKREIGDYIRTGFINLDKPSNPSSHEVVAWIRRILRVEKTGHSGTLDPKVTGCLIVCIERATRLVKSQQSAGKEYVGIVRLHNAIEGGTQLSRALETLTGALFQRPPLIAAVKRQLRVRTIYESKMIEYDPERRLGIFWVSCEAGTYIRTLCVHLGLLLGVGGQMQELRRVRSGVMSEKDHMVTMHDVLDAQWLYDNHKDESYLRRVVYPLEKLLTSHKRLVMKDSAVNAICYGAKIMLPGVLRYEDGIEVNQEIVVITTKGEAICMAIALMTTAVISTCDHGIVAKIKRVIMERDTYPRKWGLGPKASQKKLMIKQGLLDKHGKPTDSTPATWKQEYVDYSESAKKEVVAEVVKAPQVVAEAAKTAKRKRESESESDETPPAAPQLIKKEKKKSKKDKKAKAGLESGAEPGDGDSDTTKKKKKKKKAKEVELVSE", "UniProt Q9NX24, whole entry partner": "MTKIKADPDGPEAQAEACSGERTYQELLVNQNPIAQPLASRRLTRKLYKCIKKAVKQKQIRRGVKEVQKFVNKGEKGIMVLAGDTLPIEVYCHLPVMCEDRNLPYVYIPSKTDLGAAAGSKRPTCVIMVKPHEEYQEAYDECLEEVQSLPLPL", "UniProt Q9NPE3, whole entry partner": "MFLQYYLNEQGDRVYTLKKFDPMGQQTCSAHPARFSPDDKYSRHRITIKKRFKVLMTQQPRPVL", "UniProt Q9BUR4, whole entry partner": "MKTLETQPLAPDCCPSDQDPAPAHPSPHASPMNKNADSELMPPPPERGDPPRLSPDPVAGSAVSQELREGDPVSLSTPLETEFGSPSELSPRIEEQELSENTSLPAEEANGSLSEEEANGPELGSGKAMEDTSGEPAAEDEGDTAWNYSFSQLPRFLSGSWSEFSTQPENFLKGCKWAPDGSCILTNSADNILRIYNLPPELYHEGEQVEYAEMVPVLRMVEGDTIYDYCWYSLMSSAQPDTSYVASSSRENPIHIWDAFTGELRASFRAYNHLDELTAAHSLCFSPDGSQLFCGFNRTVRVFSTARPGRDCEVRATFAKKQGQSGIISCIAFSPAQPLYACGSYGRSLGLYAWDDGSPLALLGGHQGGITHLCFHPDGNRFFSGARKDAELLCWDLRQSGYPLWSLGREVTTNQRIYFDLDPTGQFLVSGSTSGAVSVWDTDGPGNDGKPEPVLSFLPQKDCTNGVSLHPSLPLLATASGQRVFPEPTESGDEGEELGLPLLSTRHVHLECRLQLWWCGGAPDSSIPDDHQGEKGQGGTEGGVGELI"}, "source": "patent US10035814B2", "about": "“Guanine analogs as telomerase substrates and telomere length affectors” (Geron Corporation, priority 2011, dated 2018)", "target": "telomerase in HT3 cells (Homo sapiens (Human), UniProt O14746)", "test": "Ex vivo TRAP assay in HT3 cells", "conditions": "read-out: ExVivo TRAP EC50 (μM)- 3 Day Assay, 3 days", "protocol": "Telomerase inhibition is observed in cells following the addition of the prodrugs (R)-PMPG-diisopropyloxy ester or (S)-PMPG-diisopropyloxy ester. HT3 cells were treated for three days with increasing concentrations of PMPG-diisopropyloxy ester ranging from 0.2 μM to 20 μM. Cells (HT3 RPMI+10% PBS) were incubated with compound for 24 hr after which PSTS primer (phosphorothioate-d(AATCCGTCGAGCAGAGTT (SEQ ID NO: 6) containing a 5′ Cy-5 label) (7.5 μM) and fresh compound are added for an additional 24 hr. Cells were lysed and endogenous telomerase inactivated by heating (15 min, 75° C.). Products were amplified by 30 cycles of PCR under TRAP conditions set forth above and quantified. The results of two independent experiments are shown in Table 4.\nHT3 cells were treated for three days with increasing concentrations of one or more of the indicated compounds ranging from 0.2 μM to 20 μM. Cells (HT3 RPMI+10% FBS) were incubated with compound for 24 hours, after which PSTS primer (phosphorothioate-d AATCCGTCGAGCAGAGTT (SEQ ID NO: 6) containing a 5′ Cy-5 label) (7.5 μM) and fresh compound were added for an additional 24 hours. […] Products were amplified by 30 cycles of PCR under TRAP conditions set forth in Kim et al., Science 266:2011, […] (which reference is incorporated herein in its entirety) and quantified.", "note": "The source holds more than one record for some entries. Only these are listed. The source may hold further records. Results that share an entry read as repeated measurements on other runs, samples or individuals."}
{"molecule": "C=C(COCP(=O)(OCOC(=O)OC(C)C)OCOC(=O)OC(C)C)Cn1cnc2c(=O)[nH]c(N)nc21", "values": [{"measurement": "EC50", "value": "3.9 µM and 17.8 µM"}]}
